Results from US20240058447A1 (INSTIL BIO UK, published 2024).
No constants are given. Whether binding was seen depends on the method and setting. Some entries that bind do so weakly or less than the wild type.

Amino acid sequences for entries named in this document (tags omitted). Residues count along the entry.
UniProt P15328, residues 25-234: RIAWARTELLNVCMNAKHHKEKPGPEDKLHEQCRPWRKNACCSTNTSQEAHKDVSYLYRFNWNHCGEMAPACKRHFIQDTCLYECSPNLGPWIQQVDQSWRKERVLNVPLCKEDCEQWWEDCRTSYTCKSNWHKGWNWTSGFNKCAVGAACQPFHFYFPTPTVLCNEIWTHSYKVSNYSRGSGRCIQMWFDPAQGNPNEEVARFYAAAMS

Target: FRα, tethered secreted form, overexpressed on HEK293 cells (human) (UniProt P15328)
Test: Retrogenix cell microarray, confirmation/specificity screens on fixed and live HEK293 cells

B1: MOV19 monoclonal antibody (antibody, V domains shown)
VH: QVQLQQSGAELVKPGASVKISCKASGYSFTGYFMNWVKQSHGKSLEWIGRIHPYDGDTFYNQNFKDKATLTVDKSSNTAHMELLSLTSEDFAVYYCTRYDGSRAMDYWGQGTTVTVSS
VL: DIELTQSPASLAVSLGQRAIISCKASQSVSFAGTSLMHWYHQKPGQQPKLLIYRASNLEAGVPTRFSGSGSKTDFTLNIHPVEEEDAATYYCQQSREYPYTFGGGTKLEIK
notes: also called MOV19 antibody; MOV19 anti-FRα antibody
With B1 the binding was “binds”.
